Assay results from PubChem BioAssay AID1508615 (Milbrandt Lab, Department of Genetics, Washington …, 2020).
The campaign covered roughly 1,600 compounds. About 20 (1%) were called active.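 Rule for the calls: active = ratio of uncleaved NAD to its breakdown product ADP-ribose above 4, meaning the enzyme was inhibited; inactive = the rest.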 This is one part of the list.

The chains behind the UniProt entries cited, without tags or fusion partners. Where a name states a change or a piece, a line headed by the entry shows the natural chain unless it says otherwise.
UniProt Q6SZW1: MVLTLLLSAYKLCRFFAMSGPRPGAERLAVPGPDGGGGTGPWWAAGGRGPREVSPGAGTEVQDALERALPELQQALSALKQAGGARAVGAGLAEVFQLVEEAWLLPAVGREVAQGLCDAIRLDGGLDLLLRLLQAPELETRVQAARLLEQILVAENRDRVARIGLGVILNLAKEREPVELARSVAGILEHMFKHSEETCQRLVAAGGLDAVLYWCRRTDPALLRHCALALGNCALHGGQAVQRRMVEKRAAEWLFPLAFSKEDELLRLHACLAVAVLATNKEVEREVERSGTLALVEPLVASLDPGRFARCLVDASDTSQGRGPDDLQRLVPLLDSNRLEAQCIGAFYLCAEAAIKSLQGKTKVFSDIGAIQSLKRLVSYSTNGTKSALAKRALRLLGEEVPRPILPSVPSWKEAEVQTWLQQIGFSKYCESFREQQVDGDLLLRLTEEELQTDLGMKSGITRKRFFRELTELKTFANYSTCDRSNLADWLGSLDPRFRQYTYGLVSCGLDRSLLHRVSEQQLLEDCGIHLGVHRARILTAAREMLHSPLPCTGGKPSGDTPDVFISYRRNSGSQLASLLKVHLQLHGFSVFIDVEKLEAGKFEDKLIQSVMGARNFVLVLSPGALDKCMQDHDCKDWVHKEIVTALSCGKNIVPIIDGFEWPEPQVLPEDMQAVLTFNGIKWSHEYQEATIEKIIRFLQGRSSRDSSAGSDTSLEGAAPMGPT

These compounds were tested against NAD(+) hydrolase SARM1 (Homo sapiens) (UniProt Q6SZW1) (assay: SARM1 TIR NADase inhibitors by HPLC, primary screen, cell lysate, HPLC readout (AID 1508615;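 note: substrate NAD at 5 µM with 60 min at 37 °C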)). Settings: HEK293T SAM-TIR lysate, at 5 µM, active compounds read high.

NAD/ADPR ratio, inactive:
OCC1CCCC(n2cnc3c(=S)nc[nH]c32)O1 (stereo not given) 3
CC1=CC(C)(C)Nc2ccc(Cc3ccc4c(c3)C(C)=CC(C)(C)N4)cc21 3
Cn1c([N+](=O)[O-])cnc1N1CCN(c2nncs2)C1=O 3
O=Cc1ccc(O)c2ncccc12 3
COc1ccc2c(c1)CCCN2C(N)=Nc1ccc(Cl)cc1 3
CN(C)CCCn1c2c3ccccc3ccc2c2oc(=O)c3ccccc3c21 3
Cc1cccnc1NC(=S)Nc1ncccc1C 3
CCCNC(=O)c1ccc(Cl)cc1Cl 3
OCCN1CCSC1=S 3
Cc1cc(N2CCN(C)CC2)n2nc(-c3ccc(Cl)cc3)nc2n1 3
Cn1c(=O)c2[nH]c(N3CCCCC3)nc2n(C)c1=O 3
O=C(O)C1OCC2(CO1)COC(C(=O)O)OC2 (stereo not given) 3
O=C(O)c1ccccc1C(=O)Nc1ccccc1[N+](=O)[O-] 3
CC(C)COc1nc2c(c(=O)n(C)c(=O)n2C)n1C 3
COc1ccc(N/C=C2\C(=O)CCc3c2oc2cc(Cl)c(O)c(Cl)c32)cc1 3
COc1cc(N=Nc2ccccc2C(=O)O)ccc1O 3
O=C(CC1(O)CCCCC1)OC1CCCC1 3
NC(=O)CCC(C(=O)O)N1C(=O)C2C3CCC(C3)C2C1=O (stereo not given) 3
CCOC(=O)c1cc[nH]c1CC(=O)NC 3
N#Cc1nnn(-c2ccc(Cl)cc2)c1N 3
S=C(Nc1ccccc1)c1ccccn1 3
Nc1ccc2c(c1)nnn2-c1ccccc1 3
NC(=Nc1ccc(N)cc1)C(N)=Nc1ccc(N)cc1 3
C=C1CC2(OC1=O)c1ccccc1CCc1ccccc12 3
Cc1ccc(S(=O)(=O)N(C)C)cc1[N+](=O)[O-] 3
Clc1ccc2nc3ccccc3cc2c1 3
CSc1ccc(NC(=O)Nc2ccccc2C(N)=O)cc1 3
c1ccc2[nH]c(CCCCCc3nc4ccccc4[nH]3)nc2c1 3
C(=N\Nc1nnn(Cc2ccccc2)n1)/c1ccccc1 3
CCCCOc1ccc(N=Nc2ccc(N)nc2N)cn1 3
O=C1c2cc([N+](=O)[O-])ccc2-c2cc(Br)c(N=C(NO)C(F)(F)F)cc21 3
Nc1nc(N)nc(-c2ccccc2-c2nc(N)nc(N)n2)n1 3
O=C1Nc2ccccc2C1(c1ccc(O)cc1)c1ccc(O)cc1 3.4
CN1C(=CC=C2C=C(I)C(=O)C(I)=C2)C(C)(C)c2ccccc21 3
O=C(Nc1ccc(C2=NCCCN2)cc1)Nc1ccc(C2=NCCCN2)cc1 3
Cc1cc(N2CCOCC2)nc(N2CCOCC2)n1 3
CC(C)(c1cc(Cl)c(O)c(CN2CCOCC2)c1)c1cc(Cl)c(O)c(CN2CCOCC2)c1 3
CCOc1ccc(NC(=O)N(O)C2(C#N)CCCCC2)cc1 3
CC(C)c1nc2c([nH]1)c(=O)n(C)c(=O)n2C 3
O=CN/C=C/c1cc(O)ccc1O 3
CCOC(=O)C(=O)Cc1cccnn1 3
O=C1C(Br)=Cc2cccc3cccc1c23 3
CCSc1ncc(CO)c(N)n1 3
OC1COC(OCc2ccccc2)C(O)C1O (stereo not given) 3
Nc1cc(N)nc(CS)n1 3
Nc1cc(Nc2ccc(Br)cc2)nc(N)n1 3
Cc1cc2c(cc1[N+](=O)[O-])NC(CNC(C)C)CC2 (stereo not given) 3
NS(=O)(=O)c1ccc(N=Nc2c(O)c(C(=O)O)cc3ccccc23)cc1 3
CCCCn1c(OC(=S)N(CC)CC)cc(C)nc1=S 3
Oc1ccccc1-c1nc2c3ccccc3c3ccccc3c2[nH]1 3
CN(CCC#N)c1ccc(/C=C(\C#N)c2cccc(C(F)(F)F)c2)cc1 3
CCCCSc1nc(C(=O)O)cc(=O)[nH]1 3
O=C(O)c1cc(O)ccc1N=Nc1ccccc1 3
CC(C)C(=O)c1ccc(O)c(O)c1 3
Cc1c(CCO)c(=O)n2n1CCCC2 3
CCn1c(=O)n(C)c2c(=O)n(C)c(=O)n(C)c21 3
CCn1c2ccccc2c2c3ncc4cccn4c3ccc21 3
Cc1nc2sc3c(c2c(=O)[nH]1)CCCC3 3
CCOC(=O)c1cnn2c(SC)ncnc12 3
C/C(=N\NC(=S)N1CC2CCC(CC2)C1)c1cnccn1 3
CCn1c2ccccc2nc2cc3c(cc21)c(Cl)c(=O)c1ccccc13 3
CCC(C)NC(=S)Nc1ccccc1 (stereo not given) 3
COc1cc2c(cc1OC)C(=O)Cc1ccc3c(c1CN(C)CC2)OCO3 3
CCCSc1nc2c(c(=O)n(C)c(=O)n2C)n1C 3
NC(=O)NC1NC(=O)NC1=O (stereo not given) 3
Cc1cc2cc3c(=O)[nH]c(=O)[nH]c3nc2cc1C 3
O=C1c2cccc3cc([N+](=O)[O-])cc(c23)C(=O)N1CCN1CCCC1 2.5
CC(C)c1cc(C(F)(F)F)nc(NNc2nc(C(C)C)cc(C(F)(F)F)n2)n1 3
COc1ccc2[nH]c(-c3ccccc3)cc2c1 3
CCC12CCCN3CCc4c(n(c5ccccc45)C(O)(C(=O)OC)C1)C32 (stereo not given) 3
COc1ccc(C(=S)N2CCN(c3ccccc3C)CC2)cc1 3
Cc1c(Cl)cccc1NC(=O)CC1Sc2ccccc2NC1=O (stereo not given) 3
Cn1c(C(=O)c2ccncc2)cc2ccccc21 3
Nc1ccc2c(c1Cl)C(=O)c1ccc(N)c(Cl)c1C2=O 3
O=[N+]([O-])c1cccnc1Oc1cc(Cl)c(Cl)cc1Cl 3
CCOc1ccc(/C=C2\NC(=S)NC2=O)cc1 3
COc1cc2c(O)cc(C(=O)O)c(-c3cc(OC)c(OC)c(OC)c3)c2cc1OC 3
CC1(C)CC(Nc2ccc(Nc3ccccc3)cc2)CC(C)(C)N1 3
CSC(=O)NC(=O)NC(=O)c1ccc([N+](=O)[O-])cc1 3
Cc1nc([N+](=O)[O-])cn1-c1nc2ccccn2c1[N+](=O)[O-] 3
CCOC(=O)Nc1cc2c(c(N)n1)N=C(c1ccccc1)CN2 3
CCCc1nc2c([nH]1)c(=O)n(C)c(=O)n2C 3
CC(C)NCC1CCc2cc(CO)c([N+](=O)[O-])cc2N1 (stereo not given) 3
CS/C(N)=N/S(=O)(=O)c1ccc(NC(C)=O)cc1 3
CC(C)N(Cc1ccccc1)S(=O)(=O)c1n[nH]c(C(C)(C)C)n1 3
COC1OCC(O)C(NC(=O)N(C)N=O)C1O (stereo not given) 3
CCCCNC(=O)Nc1ccccc1CC 3
CC1(C)SC(C)(C)N(C=O)C1C(=O)O (stereo not given) 3
O=C(O)/C=C/C(=O)Nc1ccc(-c2ccccc2)cc1 3
O=C(Oc1ccccc1)N(c1ccccc1)c1ccccc1 3
COC(=O)C1=CC(=O)N2CCN=C2S1 3
C=CCN(CC=C)C(=O)Nc1cc(OC)ccc1OC 3.2
COc1ccc(OC(=O)Nc2ccc([N+](=O)[O-])cc2OC)cc1 3
O=C(/C=C/c1ccccc1)CC(c1ccccc1)N1CCOCC1 (stereo not given) 3
O=[N+]([O-])c1ccc(/C=C/c2ccncc2)cc1 3
Nc1ccn(C2OC(CCl)C(O)C2O)c(=O)n1 (stereo not given) 3
O=C(O)/C(=C\c1ccccc1)c1ccccc1 3
COC(=O)CC1OCC=C2CN3CCC45C6=CC(=O)C(=O)C([N+](=O)[O-])=C6NC4C1C2CC35 (stereo not given) 3
CCCCCC(=O)N1CCCCC1 3
CN(C)c1ccc(N=Nc2ccccn2)cc1 3
C=CCNC(=S)Nc1cccc([N+](=O)[O-])c1 3
CN(C)c1ccc(/C=C/c2ccc3ccccc3n2)cc1 3
CSc1nc(Cl)cc(=O)[nH]1 3
O=c1[nH]nc(-c2cc(-c3ccccc3)nc3ccccc23)o1 3
S=c1[nH]ccn1-c1c(Cl)cccc1Cl 3
CC(C)NC(=O)c1ccc(C(C)C)cc1 3
CCOC(=O)N1CCN(Cc2c(O)ccc3ccccc23)CC1 3
CN(C)C(=O)OCC1COc2ccccc2O1 (stereo not given) 3
O=C(C(Cl)Cl)N1CC2CCC(CC2)C1 3
CC1=NC2=CC=CC3=NC(C(Cl)(Cl)Cl)=NC(=N1)N23 3
c1ccc(Nc2cccc3c(Nc4ccccc4)cccc23)cc1 3
Cc1cccc(C)c1NC(=O)Nc1ccc(S(N)(=O)=O)cc1 3
C=C(C)C(=O)Nc1ccc(NC(C)C)cc1 3
O=C(c1ccccc1)c1ccccc1C(=O)c1ccccc1 3
NS(=O)(=O)c1cc2c(cc1Cl)NC(CC1CCCC1)NS2(=O)=O (stereo not given) 3
CCc1oc2ccccc2c1C(=O)c1cc(Br)c(O)c(Br)c1 3
Nc1ccc(Nc2ccccc2)c(S(=O)(=O)O)c1 3
NC(=O)Nc1ccc(Nc2ccccc2)cc1 3
Cc1cc2nc(-c3ccccn3)c(-c3ccccn3)nc2cc1C 3
CCSc1nc(=S)cc(C)[nH]1 3

2 entries picked at random from those above:
NAD/ADPR ratio, inactive:
COC(=O)CC1OCC=C2CN3CCC45C6=CC(=O)C(=O)C([N+](=O)[O-])=C6NC4C1C2CC35 (stereo not given) 3
Oc1ccccc1-c1nc2c3ccccc3c3ccccc3c2[nH]1 3

Arranged by number of heavy atoms (largest number first): part of the list above
NAD/ADPR ratio, inactive:
COc1ccc(OC(=O)Nc2ccc([N+](=O)[O-])cc2OC)cc1 3
O=C(O)/C=C/C(=O)Nc1ccc(-c2ccccc2)cc1 3
O=C1C(Br)=Cc2cccc3cccc1c23 3

Entries from the list above that have a furan ring, fused or not:
NAD/ADPR ratio, inactive:
COc1ccc(N/C=C2\C(=O)CCc3c2oc2cc(Cl)c(O)c(Cl)c32)cc1 3
CCc1oc2ccccc2c1C(=O)c1cc(Br)c(O)c(Br)c1 3
